{"source": "PubChem BioAssay AID1224830 (NIAID, 2016)", "screen": "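Host factors that control LPS-induced TNF expression in human macrophages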 (primary screen)", "cell system": "human THP-1 monocytic leukaemia cells, TNF dual-luciferase reporter clone, PMA-differentiated to macrophage-like cells", "reagents": "siRNA pool against human genes, 50 nM", "time to read-out": "LPS for 4 h, given about 3 days after siRNA transfection", "conditions": "bacterial LPS (TLR4 ligand), 10 ng/ml", "read-out": "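Ratio of firefly to renilla light, scaled to the plate median and expressed as a robust z-score per replicate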", "scale": "TNF reporter robust z-score: higher = stronger TNF reporter response to LPS", "call rule": "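Each well counts as active if its z-score is over 2.8 or under -1.5; controls are left without a call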", "note": "This is a random part of about 18,000 reagents. About 2,900 of them (16%) count as active. 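Calls are made per well; low scores hint the gene aids the LPS response, high scores that it dampens it.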 Repeated entries: four replicate wells of each siRNA pool."}
{"gene": "ZBTB7C", "TNF reporter robust z-score": 0.49, "outcome": "inactive"}
{"gene": "ZBTB7C", "TNF reporter robust z-score": 1.81, "outcome": "inactive"}
{"gene": "ZBTB7C", "TNF reporter robust z-score": 3.15, "outcome": "active"}
{"gene": "ZBTB7C", "TNF reporter robust z-score": 1.04, "outcome": "inactive"}
{"gene": "AHDC1", "TNF reporter robust z-score": 1.32, "outcome": "inactive"}
{"gene": "AHDC1", "TNF reporter robust z-score": 1.81, "outcome": "inactive"}
{"gene": "AHDC1", "TNF reporter robust z-score": 0, "outcome": "inactive"}
{"gene": "AHDC1", "TNF reporter robust z-score": 0.81, "outcome": "inactive"}
{"gene": "SFMBT2", "TNF reporter robust z-score": 0.8, "outcome": "inactive"}
{"gene": "SFMBT2", "TNF reporter robust z-score": 0.31, "outcome": "inactive"}
{"gene": "SFMBT2", "TNF reporter robust z-score": 2.58, "outcome": "inactive"}
{"gene": "SFMBT2", "TNF reporter robust z-score": 1.66, "outcome": "inactive"}
{"gene": "TMEM256", "TNF reporter robust z-score": -0.45, "outcome": "inactive"}
{"gene": "TMEM256", "TNF reporter robust z-score": -0.97, "outcome": "inactive"}
{"gene": "TMEM256", "TNF reporter robust z-score": -1.01, "outcome": "inactive"}
{"gene": "TMEM256", "TNF reporter robust z-score": -0.84, "outcome": "inactive"}
{"gene": "LONRF3", "TNF reporter robust z-score": 7.01, "outcome": "active"}
{"gene": "LONRF3", "TNF reporter robust z-score": 0.65, "outcome": "inactive"}
{"gene": "LONRF3", "TNF reporter robust z-score": 0.29, "outcome": "inactive"}
{"gene": "LONRF3", "TNF reporter robust z-score": -1.27, "outcome": "inactive"}
{"gene": "PRPH2", "TNF reporter robust z-score": -1.35, "outcome": "inactive"}
{"gene": "PRPH2", "TNF reporter robust z-score": -1.33, "outcome": "inactive"}
{"gene": "PRPH2", "TNF reporter robust z-score": -1.51, "outcome": "active"}
{"gene": "PRPH2", "TNF reporter robust z-score": -1.12, "outcome": "inactive"}
{"gene": "PCNX4", "TNF reporter robust z-score": 0.46, "outcome": "inactive"}
{"gene": "PCNX4", "TNF reporter robust z-score": 0.22, "outcome": "inactive"}
{"gene": "PCNX4", "TNF reporter robust z-score": 0.05, "outcome": "inactive"}
{"gene": "PCNX4", "TNF reporter robust z-score": 0.15, "outcome": "inactive"}
{"gene": "SYNE3", "TNF reporter robust z-score": 0.35, "outcome": "inactive"}
{"gene": "SYNE3", "TNF reporter robust z-score": 0.15, "outcome": "inactive"}
{"gene": "SYNE3", "TNF reporter robust z-score": -0.75, "outcome": "inactive"}
{"gene": "SYNE3", "TNF reporter robust z-score": 0.39, "outcome": "inactive"}
{"gene": "AJAP1", "TNF reporter robust z-score": 0.88, "outcome": "inactive"}
{"gene": "AJAP1", "TNF reporter robust z-score": 1.13, "outcome": "inactive"}
{"gene": "AJAP1", "TNF reporter robust z-score": -0.11, "outcome": "inactive"}
{"gene": "AJAP1", "TNF reporter robust z-score": 0.11, "outcome": "inactive"}
{"gene": "MTREX", "TNF reporter robust z-score": 2.43, "outcome": "inactive"}
{"gene": "MTREX", "TNF reporter robust z-score": 1.7, "outcome": "inactive"}
{"gene": "MTREX", "TNF reporter robust z-score": 0.89, "outcome": "inactive"}
{"gene": "MTREX", "TNF reporter robust z-score": 1.81, "outcome": "inactive"}
{"gene": "CT47A5", "TNF reporter robust z-score": 2.14, "outcome": "inactive"}
{"gene": "CT47A5", "TNF reporter robust z-score": 1.73, "outcome": "inactive"}
{"gene": "CT47A5", "TNF reporter robust z-score": 0.59, "outcome": "inactive"}
{"gene": "CT47A5", "TNF reporter robust z-score": 1.86, "outcome": "inactive"}
{"gene": "NSUN5", "TNF reporter robust z-score": -0.21, "outcome": "inactive"}
{"gene": "NSUN5", "TNF reporter robust z-score": 0.86, "outcome": "inactive"}
{"gene": "NSUN5", "TNF reporter robust z-score": 0.83, "outcome": "inactive"}
{"gene": "NSUN5", "TNF reporter robust z-score": 1.57, "outcome": "inactive"}
{"gene": "TMSB10", "TNF reporter robust z-score": -1.73, "outcome": "active"}
{"gene": "TMSB10", "TNF reporter robust z-score": -0.08, "outcome": "inactive"}
{"gene": "TMSB10", "TNF reporter robust z-score": -1, "outcome": "inactive"}
{"gene": "TMSB10", "TNF reporter robust z-score": -1.08, "outcome": "inactive"}
{"gene": "ENAM", "TNF reporter robust z-score": 0.25, "outcome": "inactive"}
{"gene": "ENAM", "TNF reporter robust z-score": 0.28, "outcome": "inactive"}
{"gene": "ENAM", "TNF reporter robust z-score": 0.1, "outcome": "inactive"}
{"gene": "ENAM", "TNF reporter robust z-score": 0.4, "outcome": "inactive"}
{"gene": "GNB1", "TNF reporter robust z-score": 1.33, "outcome": "inactive"}
{"gene": "GNB1", "TNF reporter robust z-score": 1.84, "outcome": "inactive"}
{"gene": "GNB1", "TNF reporter robust z-score": 2.54, "outcome": "inactive"}
{"gene": "GNB1", "TNF reporter robust z-score": 1.79, "outcome": "inactive"}

3 consecutive reagents already listed, for reference:
{"gene": "SFMBT2", "TNF reporter robust z-score": 0.31, "outcome": "inactive"}
{"gene": "SFMBT2", "TNF reporter robust z-score": 2.58, "outcome": "inactive"}
{"gene": "SFMBT2", "TNF reporter robust z-score": 1.66, "outcome": "inactive"}
